Source: patent US4474765A (Farmitalia Carlo Erba S.p.A., priority 1982, dated 1984)

Tests used:
[1] = general procedure: Boc solid-phase peptide synthesis; conditions: whole synthesis, sodium salt
[2] = general procedure: Boc solid-phase peptide synthesis; benzhydrylamine resin; conditions: whole synthesis, scale 1 g of peptide resin, sodium salt

H-Gln-Glu-Pro-Pro-Ile-Ser-Leu-Asp-Leu-Thr-Phe-OH Sodium salt
isolated mass ([1]; scale 1 g of peptide-resin): 0.130 g

H-Gly-Pro-Pro-Ile-Ser-Ile-Asp-Leu-Ser-Leu-Glu-Leu-NH2 sodium salt
isolated mass [2]: 0.110 g

H-Gly-Pro-Pro-Ile-Ser-Ile-Asp-Leu-Ser-Leu-Glu-Leu-OH sodium salt
isolated mass ([1]; scale 1 g of peptide resin): 0.110 g

Pyr-Gly-Pro-Pro-Ile-Ser-Ile-Asp-Leu-Ser-Leu-Glu-Leu-NH2 Sodium salt
isolated mass [2]: 0.130 g

Pyr-Gly-Pro-Pro-Ile-Ser-Ile-Asp-Leu-Ser-Leu-Glu-Leu-OH sodium salt
isolated mass ([1]; scale 1 g of peptide resin): 0.120 g
